Measured values published in PMC13164374.

Sequences of proteins named here, by UniProt entry; tags and fusion partners are left off.
UniProt P62318: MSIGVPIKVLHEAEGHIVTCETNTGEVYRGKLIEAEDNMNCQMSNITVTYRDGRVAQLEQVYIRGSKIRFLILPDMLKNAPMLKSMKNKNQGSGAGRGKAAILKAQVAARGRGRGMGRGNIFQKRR
UniProt P62308: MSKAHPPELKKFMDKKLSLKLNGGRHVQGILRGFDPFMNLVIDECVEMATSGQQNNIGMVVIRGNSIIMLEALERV
UniProt P62304: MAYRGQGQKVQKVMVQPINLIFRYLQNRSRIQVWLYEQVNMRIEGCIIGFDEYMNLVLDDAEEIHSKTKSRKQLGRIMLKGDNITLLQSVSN
UniProt O43143: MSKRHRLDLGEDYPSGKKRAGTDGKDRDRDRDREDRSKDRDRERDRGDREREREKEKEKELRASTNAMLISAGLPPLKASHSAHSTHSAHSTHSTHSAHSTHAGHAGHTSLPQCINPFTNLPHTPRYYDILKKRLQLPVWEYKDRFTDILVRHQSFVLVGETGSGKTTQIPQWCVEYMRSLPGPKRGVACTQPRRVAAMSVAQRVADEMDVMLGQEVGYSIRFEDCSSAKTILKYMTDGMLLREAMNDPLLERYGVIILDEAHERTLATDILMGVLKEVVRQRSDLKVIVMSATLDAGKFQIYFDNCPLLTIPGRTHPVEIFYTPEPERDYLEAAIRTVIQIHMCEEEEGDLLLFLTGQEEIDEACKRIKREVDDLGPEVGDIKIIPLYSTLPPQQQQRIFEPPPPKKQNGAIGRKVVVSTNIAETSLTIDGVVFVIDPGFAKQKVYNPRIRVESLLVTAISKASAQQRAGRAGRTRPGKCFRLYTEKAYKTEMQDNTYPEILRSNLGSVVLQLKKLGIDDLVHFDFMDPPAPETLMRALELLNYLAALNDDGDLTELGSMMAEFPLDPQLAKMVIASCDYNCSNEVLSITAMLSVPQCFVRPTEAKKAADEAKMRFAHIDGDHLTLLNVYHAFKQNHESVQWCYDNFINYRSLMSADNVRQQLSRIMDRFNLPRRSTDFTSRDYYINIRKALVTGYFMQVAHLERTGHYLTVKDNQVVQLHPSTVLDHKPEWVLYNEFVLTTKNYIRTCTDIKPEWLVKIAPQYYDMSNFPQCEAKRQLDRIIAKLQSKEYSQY
UniProt Q15393: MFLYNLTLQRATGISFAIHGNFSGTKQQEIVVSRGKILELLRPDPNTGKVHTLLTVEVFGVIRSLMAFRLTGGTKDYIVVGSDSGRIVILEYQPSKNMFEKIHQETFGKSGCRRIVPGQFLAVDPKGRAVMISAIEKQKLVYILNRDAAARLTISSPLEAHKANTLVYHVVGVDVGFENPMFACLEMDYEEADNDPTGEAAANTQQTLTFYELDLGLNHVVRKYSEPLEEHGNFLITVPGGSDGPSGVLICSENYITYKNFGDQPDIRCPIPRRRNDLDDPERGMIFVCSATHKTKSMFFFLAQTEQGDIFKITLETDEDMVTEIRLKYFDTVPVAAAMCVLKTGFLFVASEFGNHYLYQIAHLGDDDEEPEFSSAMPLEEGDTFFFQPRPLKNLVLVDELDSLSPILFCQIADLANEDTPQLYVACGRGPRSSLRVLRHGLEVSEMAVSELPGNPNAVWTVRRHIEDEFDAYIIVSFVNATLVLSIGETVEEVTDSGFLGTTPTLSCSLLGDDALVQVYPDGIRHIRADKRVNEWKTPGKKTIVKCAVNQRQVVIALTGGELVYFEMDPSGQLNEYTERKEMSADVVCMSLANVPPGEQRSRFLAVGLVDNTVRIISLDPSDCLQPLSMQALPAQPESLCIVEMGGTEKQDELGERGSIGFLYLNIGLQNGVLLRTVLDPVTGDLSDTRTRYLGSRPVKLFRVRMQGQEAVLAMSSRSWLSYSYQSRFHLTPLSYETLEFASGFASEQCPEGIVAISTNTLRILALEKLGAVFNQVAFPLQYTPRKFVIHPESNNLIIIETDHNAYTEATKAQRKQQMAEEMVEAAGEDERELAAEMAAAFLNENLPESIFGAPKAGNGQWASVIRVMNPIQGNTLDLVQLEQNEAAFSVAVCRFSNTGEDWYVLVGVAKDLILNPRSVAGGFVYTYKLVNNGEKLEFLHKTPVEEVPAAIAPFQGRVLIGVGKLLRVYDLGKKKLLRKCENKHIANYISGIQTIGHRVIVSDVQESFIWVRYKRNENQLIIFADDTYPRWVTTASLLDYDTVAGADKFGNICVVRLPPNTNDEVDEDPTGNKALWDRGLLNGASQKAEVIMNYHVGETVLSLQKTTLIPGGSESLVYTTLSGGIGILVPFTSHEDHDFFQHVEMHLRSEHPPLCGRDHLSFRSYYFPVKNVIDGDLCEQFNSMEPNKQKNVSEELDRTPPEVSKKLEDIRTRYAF
UniProt Q13435: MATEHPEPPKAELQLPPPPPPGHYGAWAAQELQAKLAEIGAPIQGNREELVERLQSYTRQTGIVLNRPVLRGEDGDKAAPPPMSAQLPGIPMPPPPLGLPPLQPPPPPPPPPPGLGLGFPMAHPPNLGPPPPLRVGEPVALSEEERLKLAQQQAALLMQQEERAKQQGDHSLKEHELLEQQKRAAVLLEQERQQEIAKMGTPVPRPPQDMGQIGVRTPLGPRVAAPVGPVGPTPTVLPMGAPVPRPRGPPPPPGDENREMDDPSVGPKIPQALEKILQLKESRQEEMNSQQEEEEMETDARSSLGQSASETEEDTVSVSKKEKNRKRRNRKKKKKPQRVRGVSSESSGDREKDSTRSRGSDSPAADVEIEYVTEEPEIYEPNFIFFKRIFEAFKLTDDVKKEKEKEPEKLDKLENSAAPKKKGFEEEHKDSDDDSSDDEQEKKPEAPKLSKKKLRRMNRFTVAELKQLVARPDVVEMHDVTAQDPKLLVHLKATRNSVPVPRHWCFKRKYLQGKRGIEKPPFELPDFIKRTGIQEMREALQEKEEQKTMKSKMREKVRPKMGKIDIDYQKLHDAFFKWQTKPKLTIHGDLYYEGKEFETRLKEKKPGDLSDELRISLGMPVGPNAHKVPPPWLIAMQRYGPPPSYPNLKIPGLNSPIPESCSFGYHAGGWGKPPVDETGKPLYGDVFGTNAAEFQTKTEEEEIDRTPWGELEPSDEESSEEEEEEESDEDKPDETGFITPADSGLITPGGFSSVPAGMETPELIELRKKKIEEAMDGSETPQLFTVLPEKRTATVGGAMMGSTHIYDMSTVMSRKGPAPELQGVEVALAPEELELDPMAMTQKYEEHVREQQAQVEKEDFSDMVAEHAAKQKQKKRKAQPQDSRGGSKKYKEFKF

T1: GFP-tagged ADAR1p110 (UniProt P55265)
T1 sequence: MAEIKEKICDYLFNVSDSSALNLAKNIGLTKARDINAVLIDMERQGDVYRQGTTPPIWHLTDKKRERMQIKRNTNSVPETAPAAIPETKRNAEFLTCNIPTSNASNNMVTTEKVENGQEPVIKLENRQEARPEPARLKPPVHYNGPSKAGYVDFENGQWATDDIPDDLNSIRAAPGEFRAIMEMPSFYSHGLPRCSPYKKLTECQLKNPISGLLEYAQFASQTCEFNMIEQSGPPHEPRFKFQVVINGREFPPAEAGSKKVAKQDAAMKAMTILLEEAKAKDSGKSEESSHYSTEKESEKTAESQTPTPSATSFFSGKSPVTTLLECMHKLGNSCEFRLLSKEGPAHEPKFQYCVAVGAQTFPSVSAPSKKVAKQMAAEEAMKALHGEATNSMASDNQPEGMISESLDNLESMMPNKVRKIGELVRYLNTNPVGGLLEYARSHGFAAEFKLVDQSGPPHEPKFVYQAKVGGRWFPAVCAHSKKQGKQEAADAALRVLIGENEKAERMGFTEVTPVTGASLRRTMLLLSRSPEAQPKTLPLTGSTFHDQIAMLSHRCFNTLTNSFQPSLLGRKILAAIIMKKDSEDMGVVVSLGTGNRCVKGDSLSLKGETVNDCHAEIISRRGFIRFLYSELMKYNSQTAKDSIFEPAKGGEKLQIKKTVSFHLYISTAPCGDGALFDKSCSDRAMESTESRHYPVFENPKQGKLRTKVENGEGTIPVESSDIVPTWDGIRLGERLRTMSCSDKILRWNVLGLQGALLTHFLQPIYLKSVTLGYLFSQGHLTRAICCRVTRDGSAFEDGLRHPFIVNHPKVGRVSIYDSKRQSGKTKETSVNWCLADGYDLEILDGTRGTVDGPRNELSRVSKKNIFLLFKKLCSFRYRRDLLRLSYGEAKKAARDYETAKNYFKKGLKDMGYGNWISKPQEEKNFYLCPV


biological target: T1, GFP-tagged ADAR1p110; assay: affinity purification with mass spectrometry; GFP-trap beads on lysate of HeLa Flp-In T-REx cells expressing ADAR1p110-GFP, non-denaturing conditions; lysis buffer 10 mM Tris/Cl pH 7.5, 150 mM NaCl, 0.5 mM EDTA, 0.5% Triton X, with 250 units Benzonase; 4 h at 4 °C; pH elution; label-free quantitative proteomics; GFP-expressing cells as control

Molecule | binding
SNRPD3 (from UniProt P62318 1-126) | binds
SNRPG (from UniProt P62308 1-76) | binds
SNRPE (from UniProt P62304 1-92) | binds
DHX15 (from UniProt O43143 1-795) | binds
SF3B3 (from UniProt Q15393 1-1217) | binds
SF3B2 (from UniProt Q13435 1-895) | binds
STRBP (protein, UniProt Q96SI9 1-672) MRSIRSFANDDRHVMVKHSTIYPSPEELEAVQNMVSTVECALKHVSDWLDETNKGTKTEGETEVKKDEAGENYSKDQGGRTLCGVMRIGLVAKGLLIKDDMDLELVLMCKDKPTETLLNTVKDNLPIQIQKLTEEKYQVEQCVNEASIIIRNTKEPTLTLKVILTSPLIRDELEKKDGENVSMKDPPDLLDRQKCLNALASLRHAKWFQARANGLKSCVIVLRILRDLCNRVPTWAPLKGWPLELICEKSIGTCNRPLGAGEALRRVMECLASGILLPGGPGLHDPCERDPTDALSYMTIQQKEDITHSAQHALRLSAFGQIYKVLEMDPLPSSKPFQKYSWSVTDKEGAGSSALKRPFEDGLGDDKDPNKKMKRNLRKILDSKAIDLMNALMRLNQIRPGLQYKLLSQSGPVHAPVFTMSVDVDGTTYEASGPSKKTAKLHVAVKVLQAMGYPTGFDADIECMSSDEKSDNESKNETVSSNSSNNTGNSTTETSSTLEVRTQGPILTASGKNPVMELNEKRRGLKYELISETGGSHDKRFVMEVEVDGQKFRGAGPNKKVAKASAALAALEKLFSGPNAANNKKKKIIPQAKGVVNTAVSAAVQAVRGRGRGTLTRGAFVGATAAPGYIAPGYGTPYGYSTAAPAYGLPKRMVLLPVMKFPTYPVPHYSFF | binds
HNRNPL (protein, UniProt P14866 1-589) MSRRLLPRAEKRRRRLEQRQQPDEQRRRSGAMVKMAAAGGGGGGGRYYGGGSEGGRAPKRLKTDNAGDQHGGGGGGGGGAGAAGGGGGGENYDDPHKTPASPVVHIRGLIDGVVEADLVEALQEFGPISYVVVMPKKRQALVEFEDVLGACNAVNYAADNQIYIAGHPAFVNYSTSQKISRPGDSDDSRSVNSVLLFTILNPIYSITTDVLYTICNPCGPVQRIVIFRKNGVQAMVEFDSVQSAQRAKASLNGADIYSGCCTLKIEYAKPTRLNVFKNDQDTWDYTNPNLSGQGDPGSNPNKRQRQPPLLGDHPAEYGGPHGGYHSHYHDEGYGPPPPHYEGRRMGPPVGGHRRGPSRYGPQYGHPPPPPPPPEYGPHADSPVLMVYGLDQSKMNCDRVFNVFCLYGNVEKVKFMKSKPGAAMVEMADGYAVDRAITHLNNNFMFGQKLNVCVSKQPAIMPGQSYGLEDGSCSYKDFSESRNNRFSTPEQAAKNRIQHPSNVLHFFNAPLEVTEENFFEICDELGVKRPSSVKVFSGKSERSSSGLLEWESKSDALETLGFLNHYQMKNPNGPYPYTLKLCFSTAQHAS | binds

Results are given in words; binding and its absence hold for the method and conditions named. Binding seen in cells or lysates may run through a third protein. These calls come from enrichment with a bait or labelling near it, and not all partners need be listed. Tags and fused reporters may be left off the sequences shown.
